Results are given in words; binding and its absence hold for the method and conditions named. Binding seen in cells or lysates may run through a third protein. Some results given as binding are weak or reduced against the parent protein; the word gives no strength.
Columns and labels:
[1] = biological target: endogenous DPP9 (human (endogenous in HeLa and DG-75)) (UniProt Q86TI2); experiment: proximity ligation; in situ PLA of DPP9-Syk in HeLa cells treated with 10 µM synthetic SLRFLYEG complexed with the carrier peptide pep1; control cells with pep1 alone; only the binder purified
[2] = biological target: endogenous DPP9 (human (endogenous in HeLa and DG-75)), Q86TI2; experiment: co-IP; endogenous proteins from HeLa cells treated with different cross-linkers; binding observed with the sulfhydryl cross-linker DPDPB (spacer 19.9 Å); DPP9 immunoprecipitated; conditions: remark: other sources report otherwise

Chains of the proteins cited; added tags and fusions are not shown.
UniProt Q86TI2: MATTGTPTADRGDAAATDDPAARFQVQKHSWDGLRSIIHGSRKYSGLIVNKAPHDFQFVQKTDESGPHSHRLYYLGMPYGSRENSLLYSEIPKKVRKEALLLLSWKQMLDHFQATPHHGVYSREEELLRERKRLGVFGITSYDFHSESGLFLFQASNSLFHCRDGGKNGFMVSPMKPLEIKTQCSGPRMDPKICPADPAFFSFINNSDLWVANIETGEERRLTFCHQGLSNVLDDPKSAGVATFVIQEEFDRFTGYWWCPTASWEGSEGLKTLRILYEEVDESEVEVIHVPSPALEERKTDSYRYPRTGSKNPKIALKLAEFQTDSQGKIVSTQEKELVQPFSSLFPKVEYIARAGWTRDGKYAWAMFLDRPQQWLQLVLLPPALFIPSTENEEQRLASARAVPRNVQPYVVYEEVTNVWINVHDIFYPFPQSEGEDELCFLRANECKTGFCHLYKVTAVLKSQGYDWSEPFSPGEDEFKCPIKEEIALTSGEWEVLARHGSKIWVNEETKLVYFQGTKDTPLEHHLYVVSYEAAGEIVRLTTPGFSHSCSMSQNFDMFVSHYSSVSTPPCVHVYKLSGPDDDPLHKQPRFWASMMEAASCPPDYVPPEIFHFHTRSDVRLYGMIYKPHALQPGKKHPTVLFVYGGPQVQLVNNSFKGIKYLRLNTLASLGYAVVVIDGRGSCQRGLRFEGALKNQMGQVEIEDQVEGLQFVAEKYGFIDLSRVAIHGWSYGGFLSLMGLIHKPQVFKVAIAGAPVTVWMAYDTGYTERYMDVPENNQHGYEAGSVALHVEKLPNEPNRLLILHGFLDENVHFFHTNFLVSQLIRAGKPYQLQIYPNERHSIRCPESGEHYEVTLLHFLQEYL

Binder: SLRFLYEG [allosteric DPP8/9 peptide inhibitor SLRFLYEG]
- binding [1]: binds

B1: endogenous DPP8, Q6V1X1 1-898 (enzyme)
chain: MWKRSEQMKIKSGKCNMAAAMETEQLGVEIFETADCEENIESQDRPKLEPFYVERYSWSQLKKLLADTRKYHGYMMAKAPHDFMFVKRNDPDGPHSDRIYYLAMSGENRENTLFYSEIPKTINRAAVLMLSWKPLLDLFQATLDYGMYSREEELLRERKRIGTVGIASYDYHQGSGTFLFQAGSGIYHVKDGGPQGFTQQPLRPNLVETSCPNIRMDPKLCPADPDWIAFIHSNDIWISNIVTREERRLTYVHNELANMEEDARSAGVATFVLQEEFDRYSGYWWCPKAETTPSGGKILRILYEENDESEVEIIHVTSPMLETRRADSFRYPKTGTANPKVTFKMSEIMIDAEGRIIDVIDKELIQPFEILFEGVEYIARAGWTPEGKYAWSILLDRSQTRLQIVLISPELFIPVEDDVMERQRLIESVPDSVTPLIIYEETTDIWINIHDIFHVFPQSHEEEIEFIFASECKTGFRHLYKITSILKESKYKRSSGGLPAPSDFKCPIKEEIAITSGEWEVLGRHGSNIQVDEVRRLVYFEGTKDSPLEHHLYVVSYVNPGEVTRLTDRGYSHSCCISQHCDFFISKYSNQKNPHCVSLYKLSSPEDDPTCKTKEFWATILDSAGPLPDYTPPEIFSFESTTGFTLYGMLYKPHDLQPGKKYPTVLFIYGGPQVQLVNNRFKGVKYFRLNTLASLGYVVVVIDNRGSCHRGLKFEGAFKYKMGQIEIDDQVEGLQYLASRYDFIDLDRVGIHGWSYGGYLSLMALMQRSDIFRVAIAGAPVTLWIFYDTGYTERYMGHPDQNEQGYYLGSVAMQAEKFPSEPNRLLLLHGFLDENVHFAHTSILLSFLVRAGKPYDLQIYPQERHSIRVPESGEHYELHLLHYLQENLGSRIAALKVI
- binding [2]: no binding
